Where two headings read alike, the source gives them in different places. For at least one compound, name, drawing or mass did not settle the structure. Numbered stars: 1 amine (or outer) side, 2 acyl side, 3 side chain; on linkers, the order of the positions; unused ones are H or OH. Square brackets hold non-standard residues; d marks the D form. Peptide text beside a SMILES is read from it. * marks the point of attachment. 5FAM = O=C1OC2(c3ccc(O)cc3Oc3cc(O)ccc32)c2ccc(C(=O)*)cc21; NHCH2C6H4(4-CH2CONH2) = NC(=O)Cc1ccc(CN*)cc1; X1 = O=C(Cc1ccc(CN[*:1])cc1)[*:2]
Biological target: T1, cRaf/K-Ras (G12V) PPI (Homo sapiens, UniProt P01116, G12V)
T1 construct: b-Kras G12V (GppNHp) (aa 2-169); biotin (b-
Assay: K-Ras-cRaf HTRF-based PPI profiling
Type: biochemical
Experimental: In some experimental embodiments, a buffer was added to the assay wells which included […] HEPES pH 7.4, 150 mM NaCl, 5 mM MgCl2, 1 mM DTT, 0.005% NP40, and 1% DMSO. 5 uL of 3×K-Ras protein was then added to the assay wells, followed by the synthetic compounds which were added using acoustic technology (ECHO, Labcyte) followed by thirty minutes incubation at room temperature. Afterwards, 5 uL of 3×cRaf protein was added to the assay wells and 5 uL of detection mix was then added to the assay wells after 30 minutes. The detection mix included Mab anti-GST-Tb cryptate (Cisbio 61GSTTLB) and streptavidin-XL665 (Ex/Em=(337/665; 620) in PHERAstar (BMG Labtech)). HTRF signal was measured […] later.
The data includes raw data (signal-background without cRaf protein but with all other component), % binding (relative to DMSO controls), and curve fits. Curve fits were performed when the activities at the highest concentration of the synthetic compounds were less than 65%. Tables 18A-18B below includes the raw data (e.g., blank corrected HTRF) and Tables 19A-19B includes the % binding.

Chains of the proteins cited; added tags and fusions are not shown. Lines headed by an entry give the natural chain unless they say otherwise; changes in a name come on top.
UniProt P01116: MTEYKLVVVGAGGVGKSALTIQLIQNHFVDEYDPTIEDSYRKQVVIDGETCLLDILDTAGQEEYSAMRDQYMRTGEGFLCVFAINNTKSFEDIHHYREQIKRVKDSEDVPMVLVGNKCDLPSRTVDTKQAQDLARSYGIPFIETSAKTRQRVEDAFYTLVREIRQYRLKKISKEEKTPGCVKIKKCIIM

[1] = 1% DMSO in reaction, compounds without fluorescein, 30 nM K-Ras G12V, 10 nM GST-cRaf, 30 min pre-incubation, read-out: K-Ras G12V Compound IC50
[2] = 10-concentration IC50 mode, 3-fold serial dilution, K-Ras G12V 30 nM, GST-cRaf 10 nM, read-out: IC50

Structure (SMILES)	IC50 [1] [nM]	IC50 [2] [nM]
CC(C)[C@H](NC(=O)[C@@H](Cc1ccc(O)cc1)NC(=O)[C@@H](Cc1c[nH]cn1)NC(=O)[C@H]1CCCN1C(=O)[C@@H](Cc1c[nH]c2ccccc12)NC(=O)c1ccc2c(c1)C(=O)OC21c2ccc(O)cc2Oc2cc(O)ccc21)C(=O)NCc1ccc(CC(=O)NCC(=O)N[C@@H](C(=O)N2CCC[C@@H]2C(=O)N[C@H](CCCNC(=N)N)C(=O)N[C@@H](C)C(=O)NCc2ccc(CC(=O)N3CCC[C@@H]3C(=O)N[C@H](CO)C(=O)N[C@H](CCC(=O)O)C(=O)N[C@H](CCCNC(=N)N)C(=O)NCC(=O)NCc3ccc(CC(=O)N4CCC[C@@H]4C(=O)N[C@H](CCCCN)C(=O)N[C@H](Cc4ccc(O)cc4)C(=O)N[C@H](CCCNC(=N)N)C(=O)N[C@@H](Cc4ccccc4)C(=O)NCc4ccc(CC(=O)N[C@H](CO)C(=O)N[C@H](CO)C(=O)NCC(=O)N[C@H](CC(N)=O)C(=O)N[C@@H](Cc5ccccc5)C(=O)NCc5ccc(CC(=O)NCC(=O)N[C@H](Cc6c[nH]c7ccccc67)C(=O)N[C@H](Cc6c[nH]cn6)C(=O)N[C@H](CCCNC(=N)N)C(=O)N[C@@H](C)C(=O)NCc6ccc(CC(N)=O)cc6)cc5)cc4)cc3)cc2)C(C)C)cc1 [KRAS-1-1] (5FAM-[dW][dP][dH][dY]V[X1]G[dV][dP][dR]A[X1][dP][dS][dE][dR]G[X1][dP][dK][dY][dR]F[X1][dS][dS]G[dN]F[X1]G[dW][dH][dR]A-{NHCH2C6H4(4-CH2CONH2)})	1840	1840
CC(C)C[C@H](NC(=O)[C@@H](CCC(=O)O)NC(=O)[C@@H](CCCNC(=N)N)NC(=O)[C@@H](CO)NC(=O)[C@H](NC(=O)Cc1ccc(CNC(=O)[C@H](C)NC(=O)[C@@H](CO)NC(=O)CNC(=O)[C@@H](CO)NC(=O)[C@H]2CCCN2C(=O)Cc2ccc(CNC(=O)[C@H](Cc3ccccc3)NC(=O)[C@@H](CCC(=O)O)NC(=O)[C@@H](Cc3c[nH]cn3)NC(=O)[C@H]3CCCN3C(=O)[C@@H](CO)NC(=O)c3ccc4c(c3)C(=O)OC43c4ccc(O)cc4Oc4cc(O)ccc43)cc2)cc1)[C@H](C)O)C(=O)NCc1ccc(CC(=O)N2CCC[C@@H]2C(=O)N[C@H](CCCCN)C(=O)N[C@H](Cc2ccc(O)cc2)C(=O)N[C@H](CCCNC(=N)N)C(=O)N[C@@H](Cc2ccccc2)C(=O)NCc2ccc(CC(=O)N[C@H](CCCNC(=N)N)C(=O)N[C@H](Cc3ccc(O)cc3)C(=O)N[C@@H](C(=O)N[C@H](CCC(=O)O)C(=O)N[C@@H](C)C(=O)NCc3ccc(CC(=O)NCC(=O)N[C@H](Cc4c[nH]c5ccccc45)C(=O)N[C@H](Cc4c[nH]cn4)C(=O)N[C@H](CCCNC(=N)N)C(=O)N[C@@H](C)C(=O)NCc4ccc(CC(N)=O)cc4)cc3)[C@H](C)O)cc2)cc1 [KRAS-1-6] (5FAM-[dS][dP][dH][dE]F[X1][dP][dS]G[dS]A[X1][dT][dS][dR][dE]L[X1][dP][dK][dY][dR]F[X1][dR][dY][dT][dE]A[X1]G[dW][dH][dR]A-{NHCH2C6H4(4-CH2CONH2)})	2460	2460
CC(C)C[C@@H](NC(=O)[C@@H](Cc1ccc(O)cc1)NC(=O)[C@H]1CCCN1C(=O)[C@@H](CO)NC(=O)Cc1ccc(CNC(=O)CNC(=O)[C@@H](Cc2c[nH]c3ccccc23)NC(=O)[C@@H](CCCNC(=N)N)NC(=O)CNC(=O)[C@H]2CCCN2C(=O)Cc2ccc(CNC(=O)[C@H](C)NC(=O)[C@@H](CCCNC(=N)N)NC(=O)[C@H]3CCCN3C(=O)[C@H](NC(=O)[C@@H](Cc3ccc(O)cc3)NC(=O)Cc3ccc(CNC(=O)[C@H](Cc4ccccc4)NC(=O)[C@@H](CO)NC(=O)[C@@H](CCCNC(=N)N)NC(=O)[C@H]4CCCN4C(=O)CNC(=O)Cc4ccc(CNC(=O)[C@H](C)NC(=O)[C@@H](CCCNC(=N)N)NC(=O)[C@H]5CCCN5C(=O)[C@H](NC(=O)CNC(=O)Cc5ccc(CNC(=O)[C@@H](NC(=O)[C@@H](Cc6ccc(O)cc6)NC(=O)[C@@H](Cc6c[nH]cn6)NC(=O)[C@H]6CCCN6C(=O)[C@@H](Cc6c[nH]c7ccccc67)NC(=O)c6ccc7c(c6)C(=O)OC76c7ccc(O)cc7Oc7cc(O)ccc76)C(C)C)cc5)C(C)C)cc4)cc3)[C@H](C)O)cc2)cc1)C(=O)N[C@@H](C)C(=O)NCc1ccc(CC(N)=O)cc1 [KRAS-1-8] (5FAM-[dW][dP][dH][dY]V[X1]G[dV][dP][dR]A[X1]G[dP][dR][dS]F[X1][dY][dT][dP][dR]A[X1][dP]G[dR][dW]G[X1][dS][dP][dY][dL]A-{NHCH2C6H4(4-CH2CONH2)})	8410	8410
CC(C)C[C@H](NC(=O)[C@@H](CCC(=O)O)NC(=O)[C@H]1CCCN1C(=O)[C@@H](Cc1ccccc1)NC(=O)[C@@H](CO)NC(=O)c1ccc2c(c1)C(=O)OC21c2ccc(O)cc2Oc2cc(O)ccc21)C(=O)NCc1ccc(CC(=O)NCC(=O)N[C@@H](C(=O)N2CCC[C@@H]2C(=O)N[C@H](CCCNC(=N)N)C(=O)N[C@@H](C)C(=O)NCc2ccc(CC(=O)N3CCC[C@@H]3C(=O)N[C@H](CO)C(=O)N[C@H](CCC(=O)O)C(=O)N[C@H](CCCNC(=N)N)C(=O)NCC(=O)NCc3ccc(CC(=O)N4CCC[C@@H]4C(=O)N[C@H](CCCCN)C(=O)N[C@H](Cc4ccc(O)cc4)C(=O)N[C@H](CCCNC(=N)N)C(=O)N[C@@H](Cc4ccccc4)C(=O)NCc4ccc(CC(=O)N[C@H](CCCNC(=N)N)C(=O)N[C@H](Cc5ccccc5)C(=O)N5CCC[C@@H]5C(=O)N[C@@H](C(=O)NCC(=O)NCc5ccc(CC(=O)NCC(=O)N[C@H](Cc6c[nH]c7ccccc67)C(=O)N[C@H](Cc6c[nH]cn6)C(=O)N[C@H](CCCNC(=N)N)C(=O)N[C@@H](C)C(=O)NCc6ccc(CC(N)=O)cc6)cc5)C(C)C)cc4)cc3)cc2)C(C)C)cc1 [KRAS-1-9] (5FAM-[dS][dF][dP][dE]L[X1]G[dV][dP][dR]A[X1][dP][dS][dE][dR]G[X1][dP][dK][dY][dR]F[X1][dR][dF][dP][dV]G[X1]G[dW][dH][dR]A-{NHCH2C6H4(4-CH2CONH2)})	1820	1820
CC(C)C[C@H](NC(=O)[C@@H](C)NC(=O)[C@@H](CCC(=O)O)NC(=O)[C@H](NC(=O)[C@@H](CCCCN)NC(=O)Cc1ccc(CNC(=O)[C@H](C)NC(=O)[C@@H](CCCNC(=N)N)NC(=O)[C@H]2CCCN2C(=O)[C@H](NC(=O)CNC(=O)Cc2ccc(CNC(=O)[C@H](Cc3ccccc3)NC(=O)[C@@H](CO)NC(=O)[C@@H](CCC(=O)O)NC(=O)[C@H]3CCCN3C(=O)[C@@H](CC(C)C)NC(=O)c3ccc4c(c3)C(=O)OC43c4ccc(O)cc4Oc4cc(O)ccc43)cc2)C(C)C)cc1)[C@H](C)O)C(=O)NCc1ccc(CC(=O)N[C@H](Cc2ccc(O)cc2)C(=O)N[C@@H](C(=O)N2CCC[C@@H]2C(=O)N[C@H](CCCNC(=N)N)C(=O)N[C@@H](C)C(=O)NCc2ccc(CC(=O)N3CCC[C@@H]3C(=O)NCC(=O)N[C@H](CCCNC(=N)N)C(=O)N[C@H](Cc3c[nH]c4ccccc34)C(=O)NCC(=O)NCc3ccc(CC(=O)NCC(=O)N[C@H](Cc4c[nH]c5ccccc45)C(=O)N[C@H](Cc4c[nH]cn4)C(=O)N[C@H](CCCNC(=N)N)C(=O)N[C@@H](C)C(=O)NCc4ccc(CC(N)=O)cc4)cc3)cc2)[C@H](C)O)cc1 [KRAS-1-13] (5FAM-[dL][dP][dE][dS]F[X1]G[dV][dP][dR]A[X1][dK][dT][dE][dA]L[X1][dY][dT][dP][dR]A[X1][dP]G[dR][dW]G[X1]G[dW][dH][dR]A-{NHCH2C6H4(4-CH2CONH2)})	1570	1570
